Test results published in publication PMC10605051.
No constants are given. Whether binding was seen depends on the method and setting. Binding seen in cells or lysates may run through a third protein. Some results given as binding are weak or reduced against the parent protein; the word gives no strength.

The chains behind the UniProt entries cited, without tags or fusion partners.
UniProt Q8N122: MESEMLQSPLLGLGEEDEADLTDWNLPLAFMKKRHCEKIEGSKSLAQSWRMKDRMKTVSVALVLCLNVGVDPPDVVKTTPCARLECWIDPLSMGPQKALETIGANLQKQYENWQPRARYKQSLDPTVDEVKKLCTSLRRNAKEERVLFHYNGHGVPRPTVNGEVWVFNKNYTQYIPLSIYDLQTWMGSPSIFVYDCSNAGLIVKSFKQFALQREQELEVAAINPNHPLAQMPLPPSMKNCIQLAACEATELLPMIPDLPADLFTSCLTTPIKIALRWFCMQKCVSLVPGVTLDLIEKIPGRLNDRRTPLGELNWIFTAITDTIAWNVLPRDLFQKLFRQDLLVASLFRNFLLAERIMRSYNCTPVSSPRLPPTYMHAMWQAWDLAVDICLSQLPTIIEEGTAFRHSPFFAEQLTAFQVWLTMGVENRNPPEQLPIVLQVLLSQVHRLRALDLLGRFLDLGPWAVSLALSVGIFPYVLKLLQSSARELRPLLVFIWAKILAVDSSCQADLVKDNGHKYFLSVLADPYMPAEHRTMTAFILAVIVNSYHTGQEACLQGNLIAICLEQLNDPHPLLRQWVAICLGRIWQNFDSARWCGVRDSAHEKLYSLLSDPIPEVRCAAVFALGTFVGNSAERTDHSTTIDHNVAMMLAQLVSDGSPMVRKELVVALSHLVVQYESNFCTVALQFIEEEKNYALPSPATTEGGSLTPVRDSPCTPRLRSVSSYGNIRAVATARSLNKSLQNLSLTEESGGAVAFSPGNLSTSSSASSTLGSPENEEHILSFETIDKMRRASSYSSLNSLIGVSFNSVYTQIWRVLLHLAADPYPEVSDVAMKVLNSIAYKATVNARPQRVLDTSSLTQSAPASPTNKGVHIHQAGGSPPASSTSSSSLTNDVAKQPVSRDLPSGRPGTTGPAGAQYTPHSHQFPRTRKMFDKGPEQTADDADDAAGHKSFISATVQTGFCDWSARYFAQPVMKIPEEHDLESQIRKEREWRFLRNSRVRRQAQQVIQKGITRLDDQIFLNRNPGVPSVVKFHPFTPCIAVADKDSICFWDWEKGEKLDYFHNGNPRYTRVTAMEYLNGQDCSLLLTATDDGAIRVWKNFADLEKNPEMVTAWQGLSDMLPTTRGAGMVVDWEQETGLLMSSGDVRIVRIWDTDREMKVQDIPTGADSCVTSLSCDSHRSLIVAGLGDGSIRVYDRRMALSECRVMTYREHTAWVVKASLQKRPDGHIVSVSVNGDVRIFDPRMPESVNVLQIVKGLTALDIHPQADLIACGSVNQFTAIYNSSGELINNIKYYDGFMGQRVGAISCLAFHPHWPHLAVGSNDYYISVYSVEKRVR
UniProt Q6R327: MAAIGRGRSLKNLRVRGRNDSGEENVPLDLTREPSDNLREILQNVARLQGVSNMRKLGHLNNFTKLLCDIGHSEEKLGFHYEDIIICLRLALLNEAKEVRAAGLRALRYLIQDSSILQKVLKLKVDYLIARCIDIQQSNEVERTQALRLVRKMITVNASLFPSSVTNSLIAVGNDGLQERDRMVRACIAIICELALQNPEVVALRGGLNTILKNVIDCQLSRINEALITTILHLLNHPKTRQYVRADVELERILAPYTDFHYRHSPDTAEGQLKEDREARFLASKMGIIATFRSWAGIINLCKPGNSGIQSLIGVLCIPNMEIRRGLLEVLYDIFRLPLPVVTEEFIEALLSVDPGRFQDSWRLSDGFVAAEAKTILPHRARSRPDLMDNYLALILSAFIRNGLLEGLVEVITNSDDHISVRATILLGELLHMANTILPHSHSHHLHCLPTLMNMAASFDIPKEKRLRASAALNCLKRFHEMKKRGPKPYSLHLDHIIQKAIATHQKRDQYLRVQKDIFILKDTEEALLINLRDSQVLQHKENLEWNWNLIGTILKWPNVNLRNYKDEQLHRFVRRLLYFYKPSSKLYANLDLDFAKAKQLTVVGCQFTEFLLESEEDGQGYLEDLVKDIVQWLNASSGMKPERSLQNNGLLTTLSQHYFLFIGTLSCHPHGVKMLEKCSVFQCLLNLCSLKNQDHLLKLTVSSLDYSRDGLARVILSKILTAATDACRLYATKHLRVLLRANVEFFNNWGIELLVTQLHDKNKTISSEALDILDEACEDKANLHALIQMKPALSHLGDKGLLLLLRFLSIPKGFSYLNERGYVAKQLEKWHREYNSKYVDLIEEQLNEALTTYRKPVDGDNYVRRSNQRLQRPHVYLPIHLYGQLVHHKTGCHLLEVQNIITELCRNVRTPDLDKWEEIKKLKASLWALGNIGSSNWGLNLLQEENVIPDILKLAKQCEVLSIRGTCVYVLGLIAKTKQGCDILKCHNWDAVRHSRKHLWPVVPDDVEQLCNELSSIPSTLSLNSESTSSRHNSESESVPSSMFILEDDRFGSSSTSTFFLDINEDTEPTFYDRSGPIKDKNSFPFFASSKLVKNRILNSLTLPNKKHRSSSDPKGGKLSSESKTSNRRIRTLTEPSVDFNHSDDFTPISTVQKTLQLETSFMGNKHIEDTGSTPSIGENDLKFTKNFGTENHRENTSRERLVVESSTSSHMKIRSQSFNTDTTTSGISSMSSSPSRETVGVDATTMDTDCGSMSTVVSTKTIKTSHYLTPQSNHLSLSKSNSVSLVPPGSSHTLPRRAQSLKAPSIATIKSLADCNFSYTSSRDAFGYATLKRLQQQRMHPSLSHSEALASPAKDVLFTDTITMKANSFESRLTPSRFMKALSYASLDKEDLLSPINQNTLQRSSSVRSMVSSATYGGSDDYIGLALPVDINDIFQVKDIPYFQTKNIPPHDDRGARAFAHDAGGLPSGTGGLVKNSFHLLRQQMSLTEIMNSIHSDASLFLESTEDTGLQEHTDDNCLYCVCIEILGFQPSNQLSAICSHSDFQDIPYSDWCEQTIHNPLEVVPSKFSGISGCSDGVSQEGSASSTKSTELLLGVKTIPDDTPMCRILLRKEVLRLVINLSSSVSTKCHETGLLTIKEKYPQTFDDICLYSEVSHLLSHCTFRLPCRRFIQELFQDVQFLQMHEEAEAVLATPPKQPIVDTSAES
UniProt Q01650: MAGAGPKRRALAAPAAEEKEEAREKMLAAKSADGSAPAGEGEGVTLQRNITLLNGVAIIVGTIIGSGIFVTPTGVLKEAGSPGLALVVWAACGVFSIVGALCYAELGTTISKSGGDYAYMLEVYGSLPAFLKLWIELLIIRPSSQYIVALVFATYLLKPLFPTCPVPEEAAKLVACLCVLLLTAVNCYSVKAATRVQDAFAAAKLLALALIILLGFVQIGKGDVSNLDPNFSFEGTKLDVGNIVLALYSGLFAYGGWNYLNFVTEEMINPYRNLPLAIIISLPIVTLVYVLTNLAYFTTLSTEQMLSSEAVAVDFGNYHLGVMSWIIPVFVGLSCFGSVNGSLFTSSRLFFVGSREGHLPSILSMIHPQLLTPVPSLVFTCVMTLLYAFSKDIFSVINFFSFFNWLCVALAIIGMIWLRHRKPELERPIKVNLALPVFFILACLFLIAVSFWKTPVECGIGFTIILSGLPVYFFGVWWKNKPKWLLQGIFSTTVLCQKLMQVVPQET

Assays:
[1] = target: Raptor (human (endogenous in HeLa)) (UniProt Q8N122); test: co-IP; HeLa HA-LAT1 cell line, with or without 1 µM PMA for 6 h; 0.3% CHAPS lysis buffer; lysates immunoprecipitated with anti-Raptor or anti-Rictor antibody and protein G agarose, 4 °C; immunoblot
[2] = target: Rictor (rapamycin-insensitive companion of mTOR) (human (endogenous in HeLa)) (UniProt Q6R327); test: as above

HA-tagged L-type amino acid transporter 1 (LAT1), wild type (from UniProt Q01650 1-507)
binding [1]: no binding
binding [2]: binds
